# Primary screen of a compound library

Protein sequences, listed by entry. Tags and fused reporters are not part of them.
UniProt E9BF75, entry or part of it: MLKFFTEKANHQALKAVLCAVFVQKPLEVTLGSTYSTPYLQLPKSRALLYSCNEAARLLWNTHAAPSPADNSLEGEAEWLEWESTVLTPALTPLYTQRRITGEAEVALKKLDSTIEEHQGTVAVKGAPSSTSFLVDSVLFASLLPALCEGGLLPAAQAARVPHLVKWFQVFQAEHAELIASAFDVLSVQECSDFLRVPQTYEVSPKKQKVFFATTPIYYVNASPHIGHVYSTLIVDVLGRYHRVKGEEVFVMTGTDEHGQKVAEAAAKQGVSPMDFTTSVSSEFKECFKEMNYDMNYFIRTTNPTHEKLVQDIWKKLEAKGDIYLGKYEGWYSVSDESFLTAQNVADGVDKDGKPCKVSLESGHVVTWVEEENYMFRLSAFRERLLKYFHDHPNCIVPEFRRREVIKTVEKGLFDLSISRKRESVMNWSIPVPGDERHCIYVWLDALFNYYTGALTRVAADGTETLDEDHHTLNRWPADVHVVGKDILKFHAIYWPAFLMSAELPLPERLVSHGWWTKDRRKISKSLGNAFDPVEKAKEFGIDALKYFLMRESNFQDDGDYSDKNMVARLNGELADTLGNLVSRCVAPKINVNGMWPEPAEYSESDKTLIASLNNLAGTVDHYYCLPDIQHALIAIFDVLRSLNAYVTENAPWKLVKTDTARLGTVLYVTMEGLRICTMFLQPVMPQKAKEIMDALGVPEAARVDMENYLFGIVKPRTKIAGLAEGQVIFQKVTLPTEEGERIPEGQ

All values are in %.
How 0% and 100% were set is not recorded. Most values in the screen are low, and negative values occur.
The compounds are a random part of those screened.
A dash means the value is not listed here; it may have been measured.

LdMetRS: 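Primary screen of methionyl-tRNA synthetase; the read-out is not stated. Target: Methionyl-tRNA synthetase (putative), Leishmania donovani (UniProt E9BF75). The test concentration is not given. Values are per cent inhibition. Size under these conditions: about 68,000 compounds, about 24 of them at 50% or above in at least one test.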
Mtb heat-shock: 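Assay on Mycobacterium tuberculosis, filed only as a heat shock assay from Cornell; the read-out is not stated. The concentration is filed as 10 mM, unlikely as a test dose, so the dose is not known. Higher reads as stronger inhibition (inferred: compounds with an IC50 in retests scored well above the rest). About 69,000 compounds were tested under these conditions; 1.4% (about 930) showed 50% or more at least once.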

structure,LdMetRS,Mtb heat-shock
CC(C)(C)c1ccc2c(c1)CCN2C(=O)c1ccc(=O)[nH]n1,9.749,-0.9387
O=C(O)C1c2nc[nH]c2CCN1Cc1ccc(-c2ccccc2)s1 (stereo unspecified),12.39,-8.204
COCCN1CCCCC12CC(=O)N(c1cccc(C#N)c1)C2.O=C(O)C(F)(F)F (stereo unspecified),-,43.36
CN1CCC2(Cc3ccccc3CN(C(=O)c3ccc(Cl)cc3)C2)C1 (stereo unspecified),5.143,-38.48
[H][C@]12CN(Cc3scnc3C)C[C@@]1([H])OCCN(S(C)(=O)=O)C2,-,6.612
c1csc(CN2C[C@H](OCC3CCOCC3)[C@H]3COC[C@H]32)n1,-2.078,-
CC(C)(C)c1cc(C[C@H]2CNCC[C@H]2CC(=O)NC2CCCCC2)no1,5.537,-27.84
COC(=O)N1CCC(c2nnc(Cn3ccnc3)n2C)CC1,4.908,-4.097
CCCOCC1CCN(C(=O)c2cnc(-c3cccnc3)nc2O)C1 (stereo unspecified),8.696,6.008
COCCCNC(=O)CN1CCOC(c2ccccc2)C1 (stereo unspecified),6.799,-16.11
COc1ccc(N2CCN(C(=O)CCn3nnnc3C)CC2(C)C)cc1,9.639,15.98
O=C(NCCNc1ncccn1)N1CCCC1,23.01,15.95
Cc1c(C(=O)N2CCC2)nnn1-c1ccc2ncccc2c1,12.32,-21.46
O=C(NCCc1cccnc1)N1CCCC1c1ccsc1 (stereo unspecified),17.18,9.773
O=C(O)C(F)(F)F.[H][C@@]12CN(Cc3cnn(C)c3)CCC[C@]1(C(=O)O)CN(c1ncccn1)C2,-,-25.01
COc1cc(C)cc(C(C(=O)O)N(C)Cc2ccncc2C)c1OC (stereo unspecified),10.56,-39.78
Cc1nn(C)c(N2CCOCC2)c1CNC(c1ccccc1)C1CC1 (stereo unspecified),-17.12,3.223
c1cc2nc(C3CCNCC3)nn2cc1NC1CCC1,4.106,27.56
O=c1cc(N2CCNCC2)cnn1Cc1noc(C2CCCC2)n1,11.85,-23.69
CCc1nc(C)c([C@H]2CN(C)C[C@@H]2C(=O)Nc2ccccc2F)[nH]1,6.367,-20.33
Cc1ccc2c(c1)CCC2NCc1c(C)nn(C)c1N1CCOCC1.Cl (stereo unspecified),-,-16.61
CCCc1cc(=O)[nH]c(-c2cccc(CN3CCCCCC3)c2)n1,4.861,-11.64
CN(Cc1cc(=O)c(O)co1)C1CCN(c2ccc(F)cc2)CC1,12.54,21.64
CC(C)OCCC1CCCCN1S(C)(=O)=O (stereo unspecified),8.333,3.65
CC1c2ncc(Cn3cncn3)n2CCN1C(=O)c1cscn1 (stereo unspecified),7.945,-32.89
[H][C@@]12CCCN1CCCN(c1cc(C)nc3c(C)c(C)nn13)C2,-,-3.102
CC(C)CNC(=O)C1(Cc2ccccc2-c2cccs2)CCNC1 (stereo unspecified),21.22,-11.51
CN(Cc1ccccc1)CC(C)(C)NC(=O)c1cnns1,14.23,-36.62
[H][C@@]12OCCN(Cc3cnn(C)c3)[C@@]1([H])CCC2Cn1cccn1 (stereo partly specified),-,5.302
COc1ccccc1CC(=O)N(CCN1CCOCC1)Cc1ccco1,12.04,-7.403
O=C(CCN1CCOC(C(F)(F)F)C1)NCc1cccc(Cl)c1 (stereo unspecified),9.408,-15.2
O=C1CNc2ncnc(NCc3cccs3)c2N1,12.01,-30.93
COc1ccc(C(=O)N(C)Cc2nnc3ccccn23)c(OC)c1OC,23.2,-8.232
Cc1ccc(N2CCCN(C(=O)c3n[nH]c4c3CCC4)CC2)nn1,11.11,-4.248
COCC1CN(Cc2ccc(OC)cc2)Cc2nn(C)cc21.O=C(O)C(F)(F)F (stereo unspecified),-,-9.791
CC(C)n1cnnc1C1CCCN(S(=O)(=O)CCCF)C1 (stereo unspecified),19.16,-2.721
CCn1cc(NC(=O)C2CCN(CC(=O)NC3CCCC3)CC2)cn1,15.36,-9.055
CNC(=O)NC(=O)CCN1CCN(c2ccc(C(=O)OC)cc2)CC1C (stereo unspecified),12.01,-2.38
Cc1csc(C(Cc2ccsc2)NC(=O)c2cc(=O)n(C)c(=O)n2C)n1 (stereo unspecified),18.99,-9.31
CNc1nc(C)cc(N2CCC(C(=O)O)(n3ccc(C(C)C)n3)CC2)n1,4.902,-14.36
Cc1nccc(-c2ccccc2)c1C(=O)N1CC[C@](C)(O)[C@H](C)C1,12.63,-27.45
O=C(O)C(F)(F)F.[H][C@@]12CCCO[C@]1([H])[C@@H](NC(=O)N(C)C)CN2Cc1ccc2c(c1)OCO2,-,-13.45
COCCOCCNC(=O)N1CCc2c(F)ccc(F)c2C1,-3.495,6.57
Cc1nccc([C@@H]2C[C@@H]3CCN(Cc4c(C)noc4C)C[C@H]3O2)n1,8,-
CN(Cc1ccsc1)C(=O)Cn1c(CS(C)(=O)=O)nc2ccccc21,16.9,11.76
CC(C)c1nn(C)c(N(C)C)c1CNC(C)c1ccc2c(c1)OCO2.Cl (stereo unspecified),-,11.17
CNC[C@H]1CC[C@H](c2cc(CN(C)C(=O)c3cnccn3)n(C)n2)CC1,8.571,-
CC(C)(C)c1nnc2n1C(C(=O)N1CCCC1)CC2 (stereo unspecified),14.29,-3.017
COc1cc(N2CCC3(CCCN(Cc4ccccn4)C3)C2)ncn1.O=C(O)C(F)(F)F (stereo unspecified),-,7.352
CN(Cc1ccccc1)CC(C)(C)NC(=O)c1ccc(C(N)=O)cn1,16.37,-19.6
CC(C)OCCCNC(=O)N(C)C(C)c1ccc(-n2cncn2)cc1 (stereo unspecified),10.03,-12.8
CC(C)(C)n1ncc(NCC(O)c2ccccc2)c(Cl)c1=O (stereo unspecified),14.04,6.289
CCc1c(C(=O)NC2CCS(=O)(=O)C2)cnn1-c1ccc(F)cc1 (stereo unspecified),4.225,13.89
CS(=O)(=O)N1CCCC12CCN(Cc1nccs1)C2.O=C(O)C(F)(F)F (stereo unspecified),-,-5.798
Cc1nccc(C2CCCCN2Cc2ccccc2)n1 (stereo unspecified),20.65,-13.8
CCCn1ncc(C2CC(=O)NCc3nc4cc(C)ccn4c32)c1C (stereo unspecified),3.846,8.505
Clc1snnc1CN1CCCC(Cn2cncn2)C1 (stereo unspecified),6.103,18.3
CCc1ccc(C(=O)NCCCC2(C3OCCO3)CCOCC2)cc1,8.696,-6.957
Cc1cn2nc(N3CCN(Cc4cc(C)on4)CC3)sc2n1,18.05,-12.16
COCCCNC(=O)NCc1ccc(N2CCOC(C)C2)nc1 (stereo unspecified),9.763,-2.79
O=S(=O)(Cc1ccccc1Cl)NC(CO)c1ccco1 (stereo unspecified),5.307,1.429
O=C(O)C(F)(F)F.[H][C@@]12CCN(Cc3ccc4c(c3)OCO4)C[C@]1(C(=O)NC)CCO2,-,33.1
CCn1nc2c(cc1=O)CN(CCOc1ccccc1C#N)CC2,17.56,10.56
Cc1ccc(-c2ncc(CN3CCN(C(=O)N(C)C)CC3)s2)o1,3.663,3.561
CC(C)C(=O)N1CCC2(CCN2CC2CC2)C1.O=C(O)C(F)(F)F (stereo unspecified),-,6.024
CC(=O)N1CC2(CCN(C(=O)c3cccc4[nH]ccc34)CC2)C1,12.94,-11.25
CN(c1ccc(-c2nc(C3CC3)no2)cn1)C1CCOCC1,17.38,-0.7327
O=C(O)C(F)(F)F.O=C(c1cnccn1)N1CCC(F)(F)C2(CCN(c3ccccn3)C2)C1 (stereo unspecified),-,8.755
O=C(O)C(F)(F)F.O=C(O)C(F)(F)F.[H][C@@]12CCN(C3CCOCC3)C[C@]1([H])OCCN(Cc1cccnc1)C2=O,-,-4.825
Cc1nn(C)c(C)c1OCC(=O)NCc1cccc(C(=O)O)c1,15.38,-22.8

For reference, 5 entries once more:

* Clc1snnc1CN1CCCC(Cn2cncn2)C1 (stereo unspecified) | LdMetRS: 6.103%; Mtb heat-shock: 18.3%
* Cc1nccc(-c2ccccc2)c1C(=O)N1CC[C@](C)(O)[C@H](C)C1 | LdMetRS: 12.63%; Mtb heat-shock: -27.45%
* Cc1nn(C)c(N2CCOCC2)c1CNC(c1ccccc1)C1CC1 (stereo unspecified) | LdMetRS: -17.12%; Mtb heat-shock: 3.223%
* CCc1ccc(C(=O)NCCCC2(C3OCCO3)CCOCC2)cc1 | LdMetRS: 8.696%; Mtb heat-shock: -6.957%
* Cc1ccc(N2CCCN(C(=O)c3n[nH]c4c3CCC4)CC2)nn1 | LdMetRS: 11.11%; Mtb heat-shock: -4.248%

Source: ChEMBL document CHEMBL3988442, “University of Dundee, Small-Polar-MMV Screening Library” (2021).